Measured values published in the supplement of paper PMC4604168 (melanoma cell lines).
This is one part of the list. Many values rest on one well or one pass, so single values are uncertain.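 Imaging used 1,536-well plates; nuclei positive for cleaved PARP by antibody were divided by total DNA-stained nuclei to yield the apoptosis fraction. Doses for screening kept most cells viable, and cell lines differ markedly in resting and induced cleaved-PARP levels.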

Test system: IST-MEL1
Assay: cleaved PARP positive nuclei fraction relative to DMSO control; melanoma cells; higher = more apoptosis
Conditions: library dose: low library concentration; 72 h

SMILES	cleaved PARP positive nuclei fraction [%]
CCN(CC)CCCCNc1ncc2cc(-c3cc(OC)cc(OC)c3)c(NC(=O)NC(C)(C)C)nc2n1 + COc1cc(N2CCC(N3CCN(C)CC3)CC2)ccc1Nc1ncc(Cl)c(Nc2ccccc2S(=O)(=O)C(C)C)n1 [NVP-TAE684] (first compound 0.1 µM, partner dose 0.08 µM)	426
O=C(Nc1ccccc1)c1cc([N+](=O)[O-])ccc1Cl + Cc1cc([N+](=O)[O-])ccc1NS(=O)(=O)c1cc(Cl)ccc1Cl [FH535] (first compound 2 µM, partner dose 1 µM)	370
COc1ccc(-c2ccc3c(N4CCOCC4)nc(N4C[C@@H](C)O[C@@H](C)C4)nc3n2)cc1CO + Cn1cc(/C=C2\C(=O)Nc3cccnc32)c2ccccc21 [GW441756] (first compound 0.02 µM, partner dose 0.4 µM)	72.7
COc1cc2c(Oc3ccc4[nH]c(C)cc4c3F)ncnc2cc1OCCCN1CCCC1 [cediranib] + O=c1cc(-c2cccc3c2Sc2ccccc2S3)oc(N2CCOCC2)c1 [KU55933] (first compound 0.4 µM, partner dose 1 µM)	42.3

Test system: LB2518-MEL
Assay: as above
Conditions: library dose: low library concentration; 72 h

SMILES	cleaved PARP positive nuclei fraction [%]
CN(C)S(=O)(=O)c1ccc2c(c1)/C(=C/c1cc3c([nH]1)CCCC3)C(=O)N2 + NCC(=O)Nc1ccc(-n2nc(C(F)(F)F)cc2-c2ccc3c(ccc4ccccc43)c2)cc1 [OSU03012] (first compound 0.4 µM, partner dose 1 µM)	76.8
NCC(=O)Nc1ccc(-n2nc(C(F)(F)F)cc2-c2ccc3c(ccc4ccccc43)c2)cc1 + COc1cc2c(Oc3ccc4[nH]c(C)cc4c3F)ncnc2cc1OCCCN1CCCC1 [cediranib] (first compound 1 µM, partner dose 0.4 µM)	88.8
O=C(O)c1ccc(-c2c[nH]c3ncc(-c4ccccc4)cc23)cc1C1CCCC1 + CN(NC(=O)CC(=O)NN(C)C(=S)c1ccccc1)C(=S)c1ccccc1 [STA4783] (first compound 0.16 µM, partner dose 0.006 µM)	140
CN(NC(=O)CC(=O)NN(C)C(=S)c1ccccc1)C(=S)c1ccccc1 + COc1cc2c(Oc3ccc4[nH]c(C)cc4c3F)ncnc2cc1OCCCN1CCCC1 [cediranib] (first compound 0.006 µM, partner dose 0.4 µM)	273
NCC(=O)Nc1ccc(-n2nc(C(F)(F)F)cc2-c2ccc3c(ccc4ccccc43)c2)cc1 + CN(NC(=O)CC(=O)NN(C)C(=S)c1ccccc1)C(=S)c1ccccc1 [STA4783] (first compound 1 µM, partner dose 0.006 µM)	434
O=C(O)c1ccc(-c2c[nH]c3ncc(-c4ccccc4)cc23)cc1C1CCCC1 + COc1cc2c(Oc3ccc4[nH]c(C)cc4c3F)ncnc2cc1OCCCN1CCCC1 [cediranib] (first compound 0.16 µM, partner dose 0.4 µM)	90.5
CN(C)S(=O)(=O)c1ccc2c(c1)/C(=C/c1cc3c([nH]1)CCCC3)C(=O)N2 + CN(NC(=O)CC(=O)NN(C)C(=S)c1ccccc1)C(=S)c1ccccc1 [STA4783] (first compound 0.4 µM, partner dose 0.006 µM)	145
O=C(O)c1ccc(-c2c[nH]c3ncc(-c4ccccc4)cc23)cc1C1CCCC1 + NCC(=O)Nc1ccc(-n2nc(C(F)(F)F)cc2-c2ccc3c(ccc4ccccc43)c2)cc1 [OSU03012] (first compound 0.16 µM, partner dose 1 µM)	86.7
CN(C)S(=O)(=O)c1ccc2c(c1)/C(=C/c1cc3c([nH]1)CCCC3)C(=O)N2 + COc1cc2c(Oc3ccc4[nH]c(C)cc4c3F)ncnc2cc1OCCCN1CCCC1 [cediranib] (first compound 0.4 µM, partner dose 0.4 µM)	218
COc1cc(N2CCC(N3CCN(C)CC3)CC2)ccc1Nc1ncc(Cl)c(Nc2ccccc2S(=O)(=O)C(C)C)n1 + CC(C)CCN1c2nc(Nc3cc(F)c(O)c(F)c3)ncc2N(C)C(=O)C1C [BID1870] (first compound 0.08 µM, partner dose 0.2 µM)	149
CN(C)S(=O)(=O)c1ccc2c(c1)/C(=C/c1cc3c([nH]1)CCCC3)C(=O)N2 + O=C(O)c1ccc(-c2c[nH]c3ncc(-c4ccccc4)cc23)cc1C1CCCC1 [GSK650394] (first compound 0.4 µM, partner dose 0.16 µM)	100

At a glance, part of the list above.
SMILES	cleaved PARP positive nuclei fraction [%]
CN(C)S(=O)(=O)c1ccc2c(c1)/C(=C/c1cc3c([nH]1)CCCC3)C(=O)N2 + NCC(=O)Nc1ccc(-n2nc(C(F)(F)F)cc2-c2ccc3c(ccc4ccccc43)c2)cc1 [OSU03012] (first compound 0.4 µM, partner dose 1 µM)	76.8
NCC(=O)Nc1ccc(-n2nc(C(F)(F)F)cc2-c2ccc3c(ccc4ccccc43)c2)cc1 + COc1cc2c(Oc3ccc4[nH]c(C)cc4c3F)ncnc2cc1OCCCN1CCCC1 [cediranib] (first compound 1 µM, partner dose 0.4 µM)	88.8
